Measured values from PubChem BioAssay AID504467 (National Center for Advancing Translational Sciences (NCATS), 2011).
Hit rate of the full screen: of about 330,000 compounds, about 7,700 (2.3%) were called active. Inconclusive means that the source gave no clear call. Such entries were picked first, then a sample of the others. The call rests on the fitted dose curve; in most records, active means well fitted inhibition curve with a large enough effect; inconclusive means small, poorly fitted or top-dose-only effect, or effect the other way; inactive means flat fitted curve, though single readings scatter. A potency beside an inconclusive call is a rough fit, not a confirmed value.

assay: qHTS screen for small molecules that inhibit ELG1-dependent DNA repair in human embryonic kidney (HEK293T) cells expressing luciferase-tagged ELG1; settings: HEK293T ELG1-luciferase reporter, luminescence, 16 h, DNA damage induced by 5-fluorouridine; series mostly up to 46.1 µM; further: nearly all actives have a fitted effect of over 55% in size
Method in brief: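 HEK293T cells expressing luciferase-tagged ELG1 (2,000/well) received 5-Fluorouridine plus compound or DMSO for 16 hr at 37 °C. Luciferase was read by ONE-Glo luminescence after 30 min at room temperature.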
Potency means the concentration at half of the fitted maximal effect.

Question: For `CCc1ccc(NC(=O)C2CCN(c3c(N4CCCC4)c(=O)c3=O)CC2)cc1`, which Potency is on record?
Answer: inconclusive: 18.3 µM [activator, partial curve, poor fit]

Question: For `CN(C)CCCN=c1cc(-c2ccccc2)oc2ccc(Cl)cc12`, which Potency is on record?
Answer: inconclusive: 2.59 µM [activator, full curve, poor fit]

Question: Which Potency does the source give for `Cc1ccccc1CN(C)C(=O)CNC(=O)c1ccc2ccccc2c1` here?
Answer: inactive

Question: With `COc1ccccc1CCC(=O)N1CCC(n2nccc2NC(=O)C2CCOC2)CC1` (stereo not given) as the compound, how does the Potency read?
Answer: inactive

Question: Which Potency does the source give for `O=C(CCCCCn1c(=S)[nH]c2ccccc2c1=O)N1CCOCC1` here?
Answer: inconclusive: 1.41 µM [inhibitor, single point]

Question: For `N#Cc1c(-n2cccc2/C=N/O)sc2c1CCCC2`, which Potency is on record?
Answer: inactive

Question: With `CCCCNC(=O)CSc1nc2ccc(NC(=O)CSc3nnc(N)s3)cc2s1` as the compound, how does the Potency read?
Answer: inconclusive: 29.1 µM [inhibitor, single point]

Question: For `COc1cc(C(=O)N(Cc2ccc(N(C)C)cc2)C2CCS(=O)(=O)C2)cc(OC)c1OC` (stereo not given), which Potency is on record?
Answer: inactive

Question: With `Cn1c(=O)[nH]c(=O)c2c1nc(N1CCN(c3ccccc3)CC1)n2CCSc1ncccn1` as the compound, how does the Potency read?
Answer: inconclusive: 5.17 µM [inhibitor, full curve]

Question: Which Potency does the source give for `Cc1cccc(N2CCN(C(=O)c3ccc(Cl)c(S(=O)(=O)NCc4ccco4)c3)CC2)c1C` here?
Answer: active: 18.4 µM

Question: For `COc1cc(C(=O)OCC(=O)c2c[nH]c3ccccc23)ccc1OCC(=O)N1CCOCC1`, which Potency is on record?
Answer: inconclusive: 20.6 µM [inhibitor, single point]

Question: For `COc1cc(/C=C/c2ccc3cccc(O)c3n2)cc(OC)c1OC`, which Potency is on record?
Answer: inconclusive: 29.1 µM [activator, single point]

Question: With `COc1ccc(/C(N)=N/OC(=O)c2ccc(Br)o2)cc1` as the compound, how does the Potency read?
Answer: inconclusive: 13 µM [activator, partial curve]

Question: Which Potency does the source give for `COc1ccc(OC)c(-c2nnc(SCC(=O)N3CCCc4ccccc43)o2)c1` here?
Answer: inconclusive: 29.1 µM [inhibitor, single point]

Question: With `CCOc1ccc(NC(=O)CSc2ccc(-c3ccccn3)nn2)cc1` as the compound, how does the Potency read?
Answer: inconclusive: 29.1 µM [activator, partial curve, poor fit]

Question: For `CN(C)CCSc1nnc2[nH]c3ccccc3c2n1`, which Potency is on record?
Answer: inactive

Question: With `CCn1c(SCC(=O)Nc2oc(C)c3c(C)n[nH]c(=O)c23)nc2sc(C)c(C)c2c1=O` as the compound, how does the Potency read?
Answer: inactive

Question: Which Potency does the source give for `COc1cccc(C(=O)Nc2cccc(-c3nnc(-c4ccco4)o3)c2)c1` here?
Answer: active: 23.1 µM

Question: Which Potency does the source give for `CN(C)c1ccc(C=C2C(=O)OC(C)(C(C)(C)C)OC2=O)cc1` (stereo not given) here?
Answer: inactive

Question: Which Potency does the source give for `Cc1ccc(C(C)C)c(OCC(=O)NN=C2CCCC(=O)C2)c1` here?
Answer: inactive
